The values below come from KR20240094169A.

The chains behind the UniProt entries cited, without tags or fusion partners. Residues count along the entry.
UniProt Q02223, residues 1-54: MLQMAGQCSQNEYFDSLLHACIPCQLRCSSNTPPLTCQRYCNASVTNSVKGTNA

This experiment has as its target BCMA (antigen used for phage panning and ELISA screening) (UniProt Q02223). The experiment can be described thus: ELISA screening of phage clones after panning on BCMA. In general terms: ELISA stands for enzyme-linked immunosorbent assay.

These are yes or no findings as the source states them, for the method shown. Some binding calls cover weakened binding; strength is not graded here.

B1: 항-BCMA sdAb No.19 (VHH)
VHH: KLEESGGGSVQTGGSLRLTCAASGIIFSDDAIGWFRQAPGKERELVSLIDSKSSTYYADSVKGRFTISRDNAKNTVDLQMNSLKPEDTAIYYCNDHKRRQAMEYWGQGTQVTVSS
In the case of B1, the binding entry was “binds”.

B2: 항-BCMA sdAb No.7 (VHH)
VHH: KLEESGGGSVQTGGSLRLTCAASGSIFSSGFMAWFRQAPGKEREFVSGISWRGDSTGYADSVKGRFTISRDNAKNTVDLQMNSLKPEDTAIYYCAARGTDTAYWGQGTQVTVSS
As to B2, the binding entry was “binds”.

B3: 항-BCMA sdAb No.11 (VHH)
VHH: KLEESGGGSVQTGGSLRLTCAASGSISRLDNMGWFRQAPGKERELVAAINSKSNKTNYADSVKGRFTISRDNAKNTVDLQMNSLKPEDTAIYYCANWSFDKHRAYWGQGTQVTVSS
Take B3: the binding result was “binds”.
